Laboratory results reported in patent US20050048070A1.
No constants are given. Whether binding was seen depends on the method and setting. Binding calls can cover weak binding; strength is not graded here.

Assays:
[1] = molecular target: K8(1-265)/intact K18 heterotypic complex (human); experiment: summary map of the heterotypic association assay: GST deletion protein incubated with the complementary keratin, then stained with COU-1
[2] = molecular target: K8(1-124)/K18(1-124) heterotypic complex (human); experiment: SPR (BIAcore), complex immobilized, COU-1 injected
[3] = molecular target: K8(1-124)/intact K18 heterotypic complex (human); experiment: SPR (BIAcore), complex immobilized, COU-1 injected
[4] = molecular target: K8(1-265)/intact K18 heterotypic complex (human); experiment: heterotypic association assay: blotted K8 GST fusion proteins incubated with purified intact K18, then stained with COU-1

binding [1]: binds
binding [2]: binds
binding [3]: binds
binding [4]: binds
B1: human monoclonal IgM antibody COU-1 (antibody, V domains shown)
VH: GAEVKKPGASVKVSCKASDYTFSSYYMHWVRQAPGQGLEWMGIINPSGGSTSYAQKFQGRVTMTRDTSTNTVYMELSSLRSEDTAVYYCARDQVVVAATLSNYGMDVWGQGTTVTVSS
VL: ELTQSPGTLSLSPGERATLSCRASQSVSSSYLAWYQQKPGQAPRLLIYDASNRATGIPARFSGSGSGTDFTLTISSLEPEDFAVYYCQQGTNWGIAFGQGTRLDIKR
